The assay addresses T1, BioID2-FOXA2 (human) (UniProt Q9Y261).
T1 sequence: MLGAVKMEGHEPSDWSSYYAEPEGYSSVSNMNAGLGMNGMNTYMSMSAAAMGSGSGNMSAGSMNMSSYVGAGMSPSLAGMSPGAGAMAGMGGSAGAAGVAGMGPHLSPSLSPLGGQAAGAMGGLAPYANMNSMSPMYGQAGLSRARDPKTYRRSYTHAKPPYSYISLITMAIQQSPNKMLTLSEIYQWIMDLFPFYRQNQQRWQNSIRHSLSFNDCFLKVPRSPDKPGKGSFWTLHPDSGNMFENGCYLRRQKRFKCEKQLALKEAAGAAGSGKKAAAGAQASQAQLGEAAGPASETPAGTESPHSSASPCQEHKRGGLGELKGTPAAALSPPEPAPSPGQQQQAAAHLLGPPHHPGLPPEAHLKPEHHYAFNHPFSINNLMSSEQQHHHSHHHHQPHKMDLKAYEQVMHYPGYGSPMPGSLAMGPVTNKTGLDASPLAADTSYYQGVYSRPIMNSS
The assay can be described thus: proximity labelling; BioID2-FOXA2 or BioID2 alone transfected into ACHN cells; 50 μM biotin for 18 h; lysis in 50 mM Tris-HCl pH 7.4, 500 mM NaCl, 0.4% SDS; biotinylated proteins captured on streptavidin agarose, washed with 8 M urea, analysed by LC-MS/MS.

By UniProt entry, the sequences of proteins in these tests, tags left out.
UniProt P40337: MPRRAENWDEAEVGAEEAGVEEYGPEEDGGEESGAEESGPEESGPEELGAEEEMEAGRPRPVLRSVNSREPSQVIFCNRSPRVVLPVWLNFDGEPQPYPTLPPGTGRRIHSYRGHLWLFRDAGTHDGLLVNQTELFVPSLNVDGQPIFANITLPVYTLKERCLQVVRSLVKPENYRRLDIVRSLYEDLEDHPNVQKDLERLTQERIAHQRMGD

Results on one substance are retold here after article PMC10801253.

No constants are given. Whether binding was seen depends on the method and setting. Binding seen in cells or lysates may run through a third protein. A yes stands for co-enrichment or nearness to the bait. Other partners may have been found.

For the substance “VHL (von Hippel-Lindau) (from UniProt P40337 1-213)”, the binding entry is “binds”.
